The target of test [1] is CD4T^TMD (G403V/G406L) mutant of C-terminally truncated CD4 (amino acids 1-421), fused to mEGFP or mCherry (UniProt P06332). Description: FRET or BRET; donor (mEGFP) recovery after photoablation of the acceptor (mCherry), TIRFM of live 58α-β- hybridoma cells on mobile lipid bilayers containing agonist pMHC (MCC-E^k) and ICAM-1 (TCR engaged); 37°C, 5% CO2. (In general: In BRET a luciferase serves as donor, and the signal depends on an acceptor being close.)

Chains of the proteins cited; added tags and fusions are not shown. Lines headed by an entry give the natural chain unless they say otherwise; changes in a name come on top. A line that says so, or that is headed by a name, gives the form on record, which may keep a tag or linker. Residues count along the entry.
UniProt P06332: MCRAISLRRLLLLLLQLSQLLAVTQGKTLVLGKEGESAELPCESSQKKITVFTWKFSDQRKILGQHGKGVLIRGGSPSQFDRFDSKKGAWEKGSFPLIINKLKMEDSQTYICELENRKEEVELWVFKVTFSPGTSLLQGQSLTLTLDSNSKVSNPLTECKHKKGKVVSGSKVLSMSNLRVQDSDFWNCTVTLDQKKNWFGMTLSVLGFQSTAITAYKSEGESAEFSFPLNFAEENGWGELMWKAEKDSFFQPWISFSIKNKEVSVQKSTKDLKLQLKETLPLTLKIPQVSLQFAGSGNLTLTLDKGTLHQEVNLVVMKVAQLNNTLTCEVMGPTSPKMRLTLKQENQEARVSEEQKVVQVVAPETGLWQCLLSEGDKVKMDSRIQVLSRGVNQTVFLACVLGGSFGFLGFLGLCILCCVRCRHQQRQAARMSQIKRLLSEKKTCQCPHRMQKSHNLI
CD4T^TMD (G403V/G406L) mutant of C-terminally truncated CD4 (amino acids 1-421), fused to mEGFP or mCherry (P06332, form named): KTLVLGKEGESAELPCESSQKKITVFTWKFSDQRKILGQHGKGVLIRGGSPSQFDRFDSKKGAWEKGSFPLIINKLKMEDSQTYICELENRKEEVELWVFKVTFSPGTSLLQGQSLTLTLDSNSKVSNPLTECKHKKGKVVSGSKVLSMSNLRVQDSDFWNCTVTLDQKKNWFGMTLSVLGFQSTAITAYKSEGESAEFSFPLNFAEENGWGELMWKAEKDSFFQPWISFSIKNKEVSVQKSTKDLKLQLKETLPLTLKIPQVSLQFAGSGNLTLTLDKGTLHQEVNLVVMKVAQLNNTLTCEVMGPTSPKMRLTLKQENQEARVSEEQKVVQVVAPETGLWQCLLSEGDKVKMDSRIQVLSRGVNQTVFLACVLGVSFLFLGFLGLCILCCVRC
UniProt P31041, residues 20-179: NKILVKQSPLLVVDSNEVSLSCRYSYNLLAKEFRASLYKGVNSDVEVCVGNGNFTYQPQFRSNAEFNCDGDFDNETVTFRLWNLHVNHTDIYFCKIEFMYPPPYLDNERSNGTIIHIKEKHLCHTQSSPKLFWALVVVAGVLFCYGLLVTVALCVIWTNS

Test [2] shares this target. In words: FRET or BRET; donor (mEGFP) recovery after photoablation of the acceptor (mCherry), TIRFM of live 58α-β- hybridoma cells adhered to glass coverslips, TCR and CD4 not engaged (steady-state); 37°C, 5% CO2.
In test [3] the target is C-terminally truncated CD4, CD4T (amino acids 1-421), fused to mEGFP or mCherry (UniProt P06332). Description: FRET or BRET; donor (mEGFP) recovery after photoablation of the acceptor (mCherry), TIRFM of live 58α-β- hybridoma cells on mobile lipid bilayers containing agonist pMHC (MCC-E^k) and ICAM-1 (TCR engaged); 37°C, 5% CO2.
The target is the same in test [4]. In words: FRET or BRET; donor (mEGFP) recovery after photoablation of the acceptor (mCherry), TIRFM of live 58α-β- hybridoma cells adhered to glass coverslips, TCR and CD4 not engaged (steady-state); 37°C, 5% CO2.
Test [5] deals with wild type CD4 (CD4WT) fused to mEGFP or mCherry (UniProt P06332). Description: FRET or BRET; donor (mEGFP) recovery after photoablation of the acceptor (mCherry), TIRFM of live 58α-β- hybridoma cells on mobile lipid bilayers containing agonist pMHC (MCC-E^k) and ICAM-1 (TCR engaged); 37°C, 5% CO2.
Test [6] has the same target. In words: FRET or BRET; donor (mEGFP) recovery after photoablation of the acceptor (mCherry), TIRFM of live 58α-β- hybridoma cells adhered to glass coverslips, TCR and CD4 not engaged (steady-state); 37°C, 5% CO2.
The target in test [7] is C-terminally truncated CD28, CD28T (amino acids 1-179), fused to mEGFP or mCherry (UniProt P31041). Description: FRET or BRET; donor (mEGFP) recovery after photoablation of the acceptor (mCherry), TIRFM of live 58α-β- hybridoma cells on mobile lipid bilayers containing agonist pMHC (MCC-E^k) and ICAM-1 (TCR engaged); 37°C, 5% CO2.
Test [8] shares this target. In words: FRET or BRET; donor (mEGFP) recovery after photoablation of the acceptor (mCherry), TIRFM of live 58α-β- hybridoma cells adhered to glass coverslips, TCR and CD4 not engaged (steady-state); 37°C, 5% CO2.

No constants are given. Whether binding was seen depends on the method and setting. In cells and extracts the contact can be indirect. Some binding calls cover weakened binding; strength is not graded here.

Here are results for 4 substances from paper PMC4493003.

Consider “CD4T^TMD (G403V/G406L) mutant of C-terminally truncated CD4 (amino acids 1-421), fused to mEGFP or mCherry (from UniProt P06332 27-421) (receptor)”, for which the binding result in test [1] and in test [2] was “binds weakly” in each case.
Consider “C-terminally truncated CD4, CD4T (amino acids 1-421), fused to mEGFP or mCherry (from UniProt P06332 27-421) (receptor)”, for which the binding entry in test [3] and in test [4] was “binds weakly” in each case.
Consider “wild type CD4 (CD4WT) fused to mEGFP or mCherry (from UniProt P06332 27-457) (receptor)”, for which the binding entry in test [5] and in test [6] was “binds weakly” in each case.
For the substance “C-terminally truncated CD28, CD28T (amino acids 1-179), fused to mEGFP or mCherry (from UniProt P31041 20-179) (receptor)”, the binding result in test [7] and in test [8] was “binds” each time.
